From PubChem BioAssay AID1794844 (National Center for Advancing Translational Sciences (NCATS), 2023)
Among all 2,800 compounds or so, fewer than 10 were called active. Another 7% or so got no clear call; they are omitted. The call rests on the fitted dose curve; in most records, active means well fitted inhibition curve with a large enough effect; inconclusive means small, poorly fitted or top-dose-only effect; inactive means no such curve, though single readings can be large or run the other way. This is one part of the list.

By UniProt entry, the sequences of proteins in these tests, tags left out. Where a name states a change or a piece, a line headed by the entry shows the natural chain unless it says otherwise.
UniProt C7C422: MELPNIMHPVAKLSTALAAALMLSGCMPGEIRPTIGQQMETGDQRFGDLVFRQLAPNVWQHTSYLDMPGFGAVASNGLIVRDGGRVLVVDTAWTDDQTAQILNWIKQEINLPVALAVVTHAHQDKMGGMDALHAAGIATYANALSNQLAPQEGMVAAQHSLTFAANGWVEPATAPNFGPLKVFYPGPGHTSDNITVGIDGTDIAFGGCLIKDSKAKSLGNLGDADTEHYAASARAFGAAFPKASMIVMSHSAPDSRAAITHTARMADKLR

Target: Metallo-beta-lactamase type 2 (Klebsiella pneumoniae) (UniProt C7C422)
Assay: qHTS to identify inhibitors of the New Delhi Metallo-beta-lactamase (NDM): Nitrocefin screen against the machine-based learning selections. Further: % of control where 0% means no effect.
Conditions: NDM-1 enzyme, nitrocefin hydrolysis, absorbance 485 nm; activity, negative = inhibition: at the top concentration
Procedure, shortened: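 NDM-1 (2 nM final) in 50 mM HEPES pH 7.0, 1 uM Zn2SO4, 0.01% Tween20 was preincubated with compounds for >30 min. Nitrocefin (16.7 uM final) was read at 485 nm after 15 min, and meropenem (50 uM final) at 300 nm after 30 min.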

activity, negative = inhibition, inactive:
Cc1ccc2cccc(OCCNC(=O)C3NCCc4[nH]cnc43)c2n1 (stereo not drawn) -7.14%
OC1CCC(NCc2ccc(-c3cnc4c(OCc5ccccc5)nccn34)cc2)CC1 (stereo not drawn) -3.4% [at 57.5 µM]
O=C(O)CCn1ncc2cc(OCc3ccc(-c4cccc(CO)c4)cc3)ccc21 28.6% [at 57.5 µM]
CC(C)CNC1(Cc2cc(CN(C)Cc3ccccc3)on2)COC1 -3.11% [at 57.5 µM]
C#CCN(C)Cc1nc(C2(O)CCN(C(C)=O)CC2)cs1 -2.39% [at 57.5 µM]
Cc1cc(C)c(CNC(=O)c2nc(-c3cccc(N4CCOCC4)c3)cc3[nH]ccc23)c(=O)[nH]1 1.13%
C=CCNC(=O)N[C@H]1C[C@H]2C(=O)Nc3ccc(-c4cccs4)cc3C(=O)N2C1 -3.78% [at 57.5 µM]
Cc1nn(-c2ccc(C(F)(F)F)cc2)c(C)c1[C@@H]1C=C[C@@H](NC(=O)C2CCCCC2)C1 0.821% [at 57.5 µM]
CCN(CC)Cc1nc(C2(O)CCN(C(=O)COc3ccccc3)CC2)cs1 -16.4% [at 57.5 µM]
Cc1nc([C@@H]2CN(C3CCN(CCc4ccccc4)CC3)C[C@H]2C(N)=O)n[nH]1 -2%
COc1ccc(OC)c(CN2CCC3(CC2)Nc2ccccc2NC3=O)c1 -1.47%
COCCNC(=O)c1ccc2c(c1)N(C)C(CC(=O)N1CCC(C)CC1)CO2 (stereo not drawn) 0.0011%
O=C(C1CCCC1)N1CC2CC(C1)[C@H]1CCCC(=O)N1C2 (stereo partly drawn) -0.336%
Cn1ccc2c(C(=O)NCCC(N)=O)nc(-c3cccc(CO)c3)cc21 7.56% [at 57.5 µM]
COc1ccc(CN2CCOC[C@H]2c2ncc(-c3cccnc3)[nH]2)cc1 0.499% [at 57.5 µM]
CC1(C)[C@H](Cc2cc(CN3CCN(c4ccccc4)CC3)on2)C[C@@H]1NC(=O)Nc1ccc(F)cc1 -2.47%
COc1ccc(-c2nnc3n2CCN(C(=O)c2ccc(C(F)(F)F)cc2)C3)cc1 4.63%
O=C(c1cccc2[nH]ccc12)N1CCC([C@@H]2CNC[C@H]2CO)CC1 0.894%
COC(=O)[C@@H]1Cc2ncn(Cc3ccccc3)c2CN1S(=O)(=O)c1cccs1 -15.2% [at 57.5 µM]
CCCc1ncncc1C(=O)N1CCCC2(CC1)CNC(=O)O2 (stereo not drawn) 1.43%
CC1=C[C@@H](CC#N)[C@H](C(C)C)C[C@H]1CC(=O)NC1CCCCC1 3.1% [at 57.5 µM]
CCn1cnnc1CC1CCN(C(=O)NC)C1 (stereo not drawn) 9.39%
O=C1OC[C@@H]2CCN(Cc3ccc(Cl)cc3)Cc3ccc(F)cc3N12 -4.45% [at 57.5 µM]
CC(C)NC(=O)c1ccnc(-c2nnc3ccc(Nc4ccccc4)nn23)c1 -6.26% [at 57.5 µM]
O=C(Cc1c[nH]c2ncc(-c3cccnc3)cc12)NCc1cccc(F)c1 -3.27% [at 57.5 µM]
c1ccc(Nc2cc3c(cn2)CN(Cc2ccccn2)CCN3)cc1 25.2% [at 57.5 µM]
COc1ccc(CNC[C@H]2Cn3ccnc3CO2)cn1 2.86% [at 76.7 µM]
CC(CN1CCCC1)CN(C)c1nc(CCN)nc2ccccc12 (stereo not drawn) -9.71%
Cn1cc(C(=O)N2CCCC(c3nnnn3C)C2)cn1 (stereo not drawn) -3.67%
CO[C@@H]1CO[C@H]2[C@@H]1OC[C@@H]2NS(C)(=O)=O -19.3% [at 76.7 µM]
O=c1c2nc(-c3ccc(O)c(F)c3)ccc2ncn1-c1ccccc1 -3.87% [at 57.5 µM]
COc1ccc(Cl)cc1-c1ccc2c(c1)C(=O)N1CC[C@H](NC(=O)C3CCCC3)[C@H]1C(=O)N2 -12.3%
Oc1ccccc1CN1CCC(O)(c2csc(CN3CCOCC3)n2)CC1 1.53% [at 57.5 µM]
CN(C)c1ccc(-c2nnc([C@H]3CCN(Cc4ccco4)C3)o2)cc1 19% [at 57.5 µM]
COc1ccc(C(=O)NCc2nnc3ccc(-c4ccc(C)c(C)c4)nn23)cc1 5.93%
O=C(Cc1cccc(Cl)c1)N1CCCC(c2nn(-c3ccccc3)c(=O)[nH]2)C1 (stereo not drawn) -1.37%
CCn1cc(S(=O)(=O)N2CCCCC2c2nc(-c3ccncc3)n[nH]2)cn1 (stereo not drawn) -10.8%
COc1ccc(C(=O)N2CC[C@@H](CC(=O)O)[C@@H](CCN3CCCCC3)C2)cc1 9.35% [at 57.5 µM]
COc1cccc(-c2ccccc2NC(=O)C2CCN(Cc3cc(F)ccc3F)CC2)c1 5.82%
C[C@H](O)c1c(-c2ccc(Cl)cc2)noc1C(=O)N(C)C -10.1% [at 57.5 µM]
Cc1nc2c(c(=O)[nH]1)CCN(C(=O)C1(C)CCc3c(C)c(O)c(C)c(C)c3O1)C2 (stereo not drawn) -1.2%
CC(C)c1nc2c(c(-c3ccc(O)cc3)n1)CN(C(=O)N(C)C)CC2 -3.66%
COc1ncccc1-c1cnc2[nH]cc(CC(=O)Nc3cccnc3)c2c1 0.6% [at 57.5 µM]
CC(NCc1cn(CCC(N)=O)c2ccccc12)c1ccccc1-n1cccn1 (stereo not drawn) 0%
COc1cc(=O)n2c(c1C(=O)Nc1ccc(F)cc1F)CCCC2 -1.93%
CC1(C)C[C@H](NC(=O)c2ccccc2)[C@@]2(CCC(=O)NCCN3CCOCC3)CC[C@](C)(O)C[C@@H]12 -0.368%
CCC(C)NC(=O)CCN(CC)C(=O)c1cc(C)oc1C (stereo not drawn) -7.59%
CN(C)c1ccc(CC(=O)N2CC[C@@](C)(O)[C@@H](O)C2)cc1 -1.1%
O=C(NC[C@H]1OC[C@@H](NC2CCCCC2)[C@@H]1O)C1CCCC1 2.39% [at 57.5 µM]
CN(Cc1ccccc1)Cc1cc(C[C@H]2CNCC[C@H]2CC(=O)NCc2cccs2)no1 -5.4%
Nc1nc(C2CC(NC(=O)c3csc4c3CCCC4)C2)cc(=O)[nH]1 (stereo not drawn) -3.14%
COc1ccc(CN2C(=O)O[C@@H]3CN(C4CCCCC4)C[C@@H]32)cc1OC 11.1%
Cc1ccc(CN2CC[C@H](c3nc4cc(C)ccc4o3)C2)cc1 -1.73% [at 57.5 µM]
c1ccc(Nc2cc3c(cn2)NCCN(Cc2ccccn2)C3)cc1 -1.09% [at 57.5 µM]
COC(=O)c1ccc2c(c1)nc1n2[C@@H](CNC(=O)NC2CCCCC2)COC1 -4.82% [at 57.5 µM]
COc1ccc2[nH]c(C(=O)N3CCn4nc(CO)cc4C3)c(C)c2c1 1.35%
CC1(C(=O)NCc2ccncc2)CCc2cnc(NCc3ccccc3)nc21 (stereo not drawn) -5.86% [at 57.5 µM]
CC[C@@H](NC(=O)c1cc(S(N)(=O)=O)ccc1C)C1CC(O)C1 (stereo partly drawn) -0.119%
Cc1cn2c(=O)cc(CN3CC(=O)N(C)c4ccccc4C3=O)nc2s1 2.81%
CC(C)(O)CCc1cccc(C(=O)NC2CCN(c3ncccc3C#N)CC2)c1 0.121%
CCCCCC(=O)N1CC[C@@H](CC(=O)NCc2cccs2)[C@@H](CC)C1 8.73% [at 57.5 µM]
COc1ccc(S(=O)(=O)NC[C@H]2COCc3nc4c(C)cccc4n32)cc1 -1.92% [at 57.5 µM]
CNc1cccnc1OC1CCN(S(=O)(=O)c2ccc3c(c2)CCC3)C1 (stereo not drawn) 7.96%
CCc1n[nH]c(CC2CCN(C(=O)COc3ccc(F)cc3)CC2)n1 -0.784%
O=C(Nc1ccc([C@@H](O)[C@H]2COCC(=O)N2Cc2ccc(F)cc2)cc1)c1ccccc1 5.69% [at 57.5 µM]
CN(C)C(C(=O)N1CCN(c2ncccc2C#N)CC1)c1cccc(F)c1 (stereo not drawn) 0.693%
CC1(C)[C@H](Cc2cc(CC3CCCCC3)on2)C[C@@H]1NC(=O)c1ccccc1 0.0808% [at 57.5 µM]
CNC(=O)c1cccc(-c2cnc(Nc3cccnc3)c3c2CCO3)c1 0.884% [at 57.5 µM]
C[C@@H](c1ccccc1)N1C(=O)[C@@H]2CN(C(=O)c3ccco3)CCN2C1=O -7.93% [at 57.5 µM]
CN1C[C@@H](F)[C@@H](OCc2nc3ccc(C(F)(F)F)cc3[nH]2)C1 2.4% [at 57.5 µM]
O=C(O)Cn1ccc2cc(OCc3cccc(-c4ccncc4)c3)cnc21 2.84% [at 57.5 µM]
O=C1N(Cc2ccccn2)C[C@H]2CN(Cc3cccc(OC(F)(F)F)c3)CCN12 -1.12% [at 57.5 µM]
COc1cccc(-c2cc(C(=O)O)cc(S(=O)(=O)N3CCSCC3)c2)c1 -5.42%
COC(=O)c1cc2n(n1)CCN(C(=O)c1cccc3c1OCC3)C2 0.926%
CNC(=O)[C@@H](Cc1ccccc1)N1CCC[C@H]1C(=O)N1CCCCC1 1.51% [at 57.5 µM]
CC1=C[C@@H](CNS(C)(=O)=O)[C@H](C(C)C)C[C@H]1Cc1nc2ccc(Cl)cc2[nH]1 0.4% [at 57.5 µM]
CC(C)NC(=O)N[C@H]1CCN(C(=O)c2cnccn2)[C@@H]1C(=O)N[C@@H](Cc1cccs1)C(N)=O -2.8%
Cc1ccc(-n2nc3n(c2=O)CCN(C(=O)c2ccccc2C)C3)cc1 -10.6% [at 57.5 µM]
Cc1ccccc1-c1[nH]nc2ncc(-c3cn[nH]c3)nc12 3.53% [at 76.7 µM]
COCC(=O)N1CC2(Cc3ccccc3N(C(C)=O)C2)C1 -0.625% [at 57.5 µM]
Cc1ccc(S(=O)(=O)NC[C@H]2OC[C@@H](NCC(C)(C)C)[C@@H]2O)cc1 -2.2% [at 57.5 µM]
CC(=O)N[C@H]1C[C@@H](c2cnc3ccccc3c2)O[C@@H](C2CCCCC2)C1 -5.83%
Cn1ccc2c(C(=O)NCc3cccnc3)nc(-c3ccc(CO)cc3)cc21 1.42% [at 57.5 µM]
CN1[C@@H](CCC(=O)N2CCc3ccccc32)CNC(=O)[C@@H]2[C@H]1CCN2Cc1ccc(O)cc1 -1.15%
COCC[C@]1(O)CCN(C(=O)c2cccc(OC)c2C)C[C@H]1C 2.2%
O=C(c1ccc(Cn2cnnn2)cc1)N1CCC2(CC1)[C@H](O)C[C@@H]2OCCO -2.43%
C[C@]1(O)CCN(C(=O)c2cnn3cc(CCO)cnc23)C[C@@H]1O -3.01%
O=C1NC(=O)C(c2ccc(-c3ccc4nc[nH]c(=O)c4c3)cc2)N1 (stereo not drawn) 0.866%
COc1ccc(C(=O)NCC2(COc3ccc(S(C)(=O)=O)cc3)C[C@@H](O)[C@@H](O)C2)cc1 (stereo partly drawn) -6.11%
C#CCNC(=O)c1onc(-c2ccc(F)cc2)c1[C@H](C)O 11.6% [at 76.7 µM]
N#Cc1cccc(CN2CC[C@H](c3nnc(-c4ccco4)o3)C2)c1 3.22% [at 57.5 µM]
CCOc1ccc(C(=O)N2CCC3(CC2)N(C)C(=O)CS3(=O)=O)cc1 -4.48%
O=C1N[C@@H]2CCN(S(=O)(=O)c3ccccc3)[C@@H]2C(=O)N1c1ccc(F)cc1 -3.54% [at 57.5 µM]
Cc1ccc(CN2CC[C@@H]3[C@H]2C(=O)NC[C@H](CCC(=O)N2CCCC2)N3C)cc1 -15.8% [at 57.5 µM]
CC(C)(C)c1coc([C@@H]2COCCN2Cc2ccc(F)cc2)n1 -0.248% [at 57.5 µM]
O=c1cc(-c2ccncc2)oc2c(-c3cccc(CO)c3)nccc12 1.14% [at 57.5 µM]
CC1=C[C@@H](CO)[C@H](C(C)C)C[C@H]1Cc1nnc(C(C)(C)C)o1 11.1% [at 57.5 µM]
O=C(Nc1cccc(F)c1)N1C[C@@H]2C[C@H](C1)c1c(-c3cc4ccccc4s3)ccc(=O)n1C2 -3.07%

Nothing new here: entries from further up.
activity, negative = inhibition, inactive:
Cn1ccc2c(C(=O)NCc3cccnc3)nc(-c3ccc(CO)cc3)cc21 1.42% [at 57.5 µM]
CN1[C@@H](CCC(=O)N2CCc3ccccc32)CNC(=O)[C@@H]2[C@H]1CCN2Cc1ccc(O)cc1 -1.15%
COCC[C@]1(O)CCN(C(=O)c2cccc(OC)c2C)C[C@H]1C 2.2%
O=C(c1ccc(Cn2cnnn2)cc1)N1CCC2(CC1)[C@H](O)C[C@@H]2OCCO -2.43%

Part of the list above in order of molar mass, rising:
activity, negative = inhibition, inactive:
N#Cc1cccc(CN2CC[C@H](c3nnc(-c4ccco4)o3)C2)c1 3.22% [at 57.5 µM]
COCC[C@]1(O)CCN(C(=O)c2cccc(OC)c2C)C[C@H]1C 2.2%
Cc1nc2c(c(=O)[nH]1)CCN(C(=O)C1(C)CCc3c(C)c(O)c(C)c(C)c3O1)C2 (stereo not drawn) -1.2%
